Laboratory results published in PubChem BioAssay AID504834 (National Center for Advancing Translational Sciences (NCATS), 2011).
Screen size: about 320,000 compounds; about 22,000 (6.9%) were called active. The shares of active, inactive and inconclusive entries below differ from those in the screen. The call rests on the fitted dose curve; in most records, active means well fitted inhibition curve with a large enough effect; inconclusive means small, poorly fitted or top-dose-only effect, or another doubt; inactive means no such curve, though single readings can be large or run the other way. Potencies of inconclusive entries are doubtful fits and often do not repeat.

assay: Primary qHTS for delayed death inhibitors of the malarial parasite plastid, 96 hour incubation; settings: P. falciparum luciferase reporter growth; series mostly up to 28.7 µM
In short: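 Infected RBCs, 2% Hct / 0.05% parasitemia final; luciferase-reporter P. falciparum; cpd 96 h, 37 C, 5% CO2; luciferase detection reagent; luminescence.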
On the % scale 0 is the no-effect control and ±100 the full control effect; potency means the concentration at half of the fitted maximal effect.

For COc1ccc(OCC(=O)Nc2cc(S(=O)(=O)N3CCCCC3)ccc2OC)cc1, which Potency is on record?
Its Potency is “inactive”.

For COc1ccc(CCN(C)CC(=O)Nc2cc(C)nc3ccccc23)cc1OC, which Potency is on record?
Its Potency is inconclusive: 18.5 µM [inhibitor, single point].

With CCOC(=O)c1sc(=S)n(-c2ccc(Cl)cc2)c1SC as the compound, how does the Potency read?
The Potency was active: 0.928 µM.

With Cc1c(NS(=O)(=O)c2ccccc2)c(=O)n(-c2ccccc2)n1C as the compound, how does the Potency read?
The Potency was “inactive”.

With O=C(CCC1CCCN(C(=O)c2ccc3c(c2)OCO3)C1)N1CCN(c2ccccn2)CC1 (stereo not drawn) as the compound, how does the Potency read?
The Potency was inconclusive: 11.7 µM [inhibitor, single point].

With Cc1cc(C)n2nc(S(=O)(=O)NCCc3ccccc3)nc2n1 as the compound, how does the Potency read?
Its Potency is inconclusive: 18.5 µM [inhibitor, partial curve, poor fit].

For Cc1ccc2nc(-c3ccc(N4C(=NC(=O)CCC(=O)O)SC5CS(=O)(=O)CC54)cc3)sc2c1 (stereo not drawn), which Potency is on record?
Its Potency is “inactive”.

For O=c1[nH]c(C2CCN(S(=O)(=O)c3ccc(C(F)(F)F)cc3)CC2)nc2c1nnn2Cc1cccc(F)c1, which Potency is on record?
Its Potency is inconclusive: 10.4 µM [inhibitor, single point].

For Cc1ccccc1C(=O)Nc1cccc(-c2nnc(SCC(=O)O)n2C)c1, which Potency is on record?
Its Potency is inconclusive: 0.465 µM [inhibitor, full curve, poor fit].

For O=C(CN(Cc1ccccc1)C(=O)c1cccc([N+](=O)[O-])c1)Nc1c(Cl)cc(Cl)cc1Cl, which Potency is on record?
The Potency was “inactive”.

For O=Cc1c(N2CCN(c3ccccc3)CC2)nc2ccccn2c1=O, which Potency is on record?
The Potency was inconclusive: 3.7 µM [inhibitor, single point].

For CCOC(=O)c1c(C)oc2cc(Br)c(OC(=O)N3CCOCC3)cc12, which Potency is on record?
Its Potency is inconclusive: 14.7 µM [inhibitor, partial curve, poor fit].

Which Potency does the source give for Cc1ccc2cc3cc(C(=O)N4CCCCC4C)oc3nc2c1 (stereo not drawn) here?
The Potency was “inactive”.

For O=C1c2ccccc2NC(c2ccccc2O)N1O (stereo not drawn), which Potency is on record?
The Potency was inconclusive: 8.28 µM [inhibitor, partial curve, poor fit].

With CCCCNC(=O)c1nnn(-c2ccccc2)c1N as the compound, how does the Potency read?
Its Potency is inconclusive: 18.5 µM [inhibitor, single point].

Which Potency does the source give for CN(C)NC(=O)c1ccsc1NC(=O)c1ccc(S(=O)(=O)N2CCCC2)cc1 here?
Its Potency is active: 5.22 µM.

With CCC(CC)NC(=O)c1cc(OC)c(OC)cc1[N+](=O)[O-] as the compound, how does the Potency read?
The Potency was “inactive”.

Which Potency does the source give for Cc1cc(CN(C)C(=O)c2ccc(OC3CCN(S(=O)(=O)N(C)C)CC3)cc2)n[nH]1 here?
Its Potency is “inactive”.

For CS(=O)(=O)N1CCC(c2noc(-c3ccc(C(F)(F)F)cc3)n2)CC1, which Potency is on record?
The Potency was inconclusive: 0.294 µM [inhibitor, full curve, poor fit].

For Cc1cc([N+](=O)[O-])nn1CCCC(=O)O, which Potency is on record?
Its Potency is inconclusive: 10.4 µM [inhibitor, single point].

Which Potency does the source give for CCOc1ccc(-n2cc(C(=O)N3CCC(C)CC3)c3cc(OC)c(OC)cc3c2=O)cc1 here?
The Potency was “inactive”.

With CCCCCCCCn1cc(C(C)=O)c(=O)[nH]c1=O as the compound, how does the Potency read?
The Potency was inconclusive: 0.0586 µM [inhibitor, full curve, poor fit].

For O=C1OCCN1/N=C/c1ccc([N+](=O)[O-])o1, which Potency is on record?
Its Potency is active: 3.79 µM.

With CC(C)NC(=O)c1n[nH]c(=O)c2ccccc12 as the compound, how does the Potency read?
The Potency was inconclusive: 11.7 µM [inhibitor, single point].

Which Potency does the source give for O=C(N/N=C\c1cccnc1)c1ccc(Cl)s1 here?
Its Potency is inconclusive: 11.7 µM [inhibitor, partial curve, poor fit].

With Cc1cccc(C(=O)NCc2nnc3c4ccccc4c(-c4ccccc4)nn23)c1 as the compound, how does the Potency read?
The Potency was inconclusive: 10.4 µM [inhibitor, partial curve].

Which Potency does the source give for Cc1cccc(C(=O)NC(=S)Nc2ccc(Cc3ccncc3)cc2)c1 here?
The Potency was inconclusive: 7.38 µM [inhibitor, single point].

With O=C(NS(=O)(=O)Oc1cccc(F)c1)OC[C@@H]1CCCN2CCCCC12 (stereo partly drawn) as the compound, how does the Potency read?
Its Potency is inconclusive: 16.5 µM [inhibitor, single point].

With Cc1cccc2cc(CN(Cc3cccs3)Cc3nnnn3Cc3ccccc3)c(=O)[nH]c12 as the compound, how does the activity change, negative = inhibition read?
Its activity change, negative = inhibition is inactive: -1.26% [at 5.75 µM].

Which Potency does the source give for CCOc1ccc(N(CC(=O)NC2CCCC2)C(=O)CCC(=O)Nc2nccs2)cc1 here?
The Potency was inconclusive: 0.0033 µM [inhibitor, full curve, poor fit].

Which Potency does the source give for COc1ccccc1-c1nnc(NC(=O)c2ccc3ncsc3c2)o1 here?
The Potency was inconclusive: 16.5 µM [inhibitor, single point].

Which Potency does the source give for CC1CCCN(CCCN2C(=O)C3C(C(=O)Nc4ccc(Cl)cc4)C4C=CC3(O4)C2C(=O)NC2CCCCC2)C1 (stereo not drawn) here?
Its Potency is “inactive”.

Which Potency does the source give for COc1ccc(N(Cc2cc3ccccc3[nH]c2=O)C(=O)C2CCCO2)cc1 (stereo not drawn) here?
The Potency was inconclusive: 1.85 µM [inhibitor, partial curve].

With Cn1c(Cn2cnc([N+](=O)[O-])n2)nnc1SCC(=O)Nc1cccc(Cl)c1 as the compound, how does the Potency read?
Its Potency is inconclusive: 5.22 µM [inhibitor, partial curve, poor fit].

With Cc1ccc(C(=O)Nc2ccccc2Cl)cc1 as the compound, how does the Potency read?
Its Potency is “inactive”.

Which Potency does the source give for CCCCNC(=O)CNC(=O)c1nn(-c2ccc(OC)cc2)c(=O)c2ccccc12 here?
The Potency was inconclusive: 4.65 µM [inhibitor, partial curve].

For Cc1ccc(CNC(=O)CCOc2ccc(C(C)(C)C)cc2)cc1, which Potency is on record?
The Potency was inconclusive: 18.5 µM [inhibitor, single point].

Which Potency does the source give for O=C(Nc1ccc(Oc2ccc(Cl)cc2)c(Cl)c1)c1cc(I)cc(I)c1O here?
Its Potency is inconclusive: 19 µM [inhibitor, partial curve, poor fit].

Which Potency does the source give for CC(=O)Nc1ccc(NC(=O)c2sc3nc4c(c(-c5ccc(C)cc5)c3c2N)CCC4)cc1 here?
The Potency was inconclusive: 13.1 µM [inhibitor, single point].

Which Potency does the source give for OCCC1CN(Cc2cccn2-c2nccs2)CCN1Cc1ccc(F)c(F)c1 (stereo not drawn) here?
Its Potency is active: 13.1 µM.

Which Potency does the source give for NC(=O)c1ccc(-n2nnnc2SCC(=O)Nc2ccccc2)cc1 here?
Its Potency is inconclusive: 11.7 µM [inhibitor, single point].

With CCc1nnc(SCC(=O)NC2CCCCC2)nc1CC as the compound, how does the Potency read?
Its Potency is inconclusive: 9.28 µM [inhibitor, single point].

With COc1ccc(N2CCN(C(=O)CSc3nc4[nH]ncc4c(=O)n3-c3cccc4ccccc34)CC2)cc1 as the compound, how does the Potency read?
Its Potency is inconclusive: 2.94 µM [inhibitor, full curve, poor fit].

For c1ccc2c(c1)Sc1ccccc1N2CCN1CCCC1, which Potency is on record?
The Potency was active: 15.1 µM.

For CCOC(=O)c1ccccc1NC(=O)COC(=O)C1CC(=O)N(CCc2ccccc2)C1 (stereo not drawn), which Potency is on record?
The Potency was “inactive”.

For Cc1cccc(NC(=O)CNC(=O)c2cn(Cc3ccccc3)nc2-c2cccnc2)c1C, which Potency is on record?
Its Potency is inconclusive: 11.7 µM [inhibitor, single point].

For COc1ccc(N2C(=S)NC3c4cc(Cl)ccc4OC2(C)C3C(=O)N(C)C)cc1 (stereo not drawn), which Potency is on record?
Its Potency is inconclusive: 0.0029 µM [inhibitor, full curve, poor fit].

For Cc1cc(C)n2nc(SCc3nnc(SCc4ccccc4C)s3)nc2n1, which Potency is on record?
Its Potency is inconclusive: 1.85 µM [inhibitor, partial curve, poor fit].

Which Potency does the source give for Cc1ccc2c(cnn2C(=O)CCC(=O)NC2CCCCC2)c1 here?
Its Potency is inconclusive: 10.4 µM [inhibitor, single point].

With C[C@H](NC(=O)[C@H](Cc1ccccc1)n1c(=O)[nH]c2ccccc2c1=O)C(=O)N1CCC(C(=O)O)CC1 as the compound, how does the Potency read?
Its Potency is inconclusive: 0.0033 µM [inhibitor, full curve, poor fit].

Which Potency does the source give for Cc1nc(SC(C)C(=O)NC2CCCCC2C)c2c(C)c(C)sc2n1 (stereo not drawn) here?
The Potency was active: 14.7 µM.

With CCc1ccc2c(c1)cc(C)c1nnc(SCC(=O)Nc3cc(OC)c(OC)cc3C(=O)O)n12 as the compound, how does the Potency read?
The Potency was “inactive”.

With CCCCc1nnc(NC(=O)C(C)Sc2nc(C)cc(=O)[nH]2)s1 (stereo not drawn) as the compound, how does the Potency read?
The Potency was inconclusive: 0.657 µM [inhibitor, full curve, poor fit].

With O=C1CC(N2CCCCCC2)C(=O)N1c1ccc2c(c1)OCO2 (stereo not drawn) as the compound, how does the Potency read?
The Potency was “inactive”.

With CCOc1ccccc1C(=O)Nc1nnc(CC)s1 as the compound, how does the Potency read?
The Potency was inconclusive: 18.5 µM [inhibitor, single point].

For CCOC(=O)c1cc2n(c1/N=C/N(C)C)-c1ccccc1C2=O, which Potency is on record?
Its Potency is inconclusive: 10.4 µM [inhibitor, single point].

For COc1ccccc1C1CC(c2ccccc2)=NN1C(=O)c1ccccc1 (stereo not drawn), which Potency is on record?
The Potency was “inactive”.

With Cc1ccc2nc(NC(=O)COC(=O)c3ccc(Br)o3)sc2c1 as the compound, how does the Potency read?
The Potency was active: 1.17 µM.

Which Potency does the source give for COc1cc2c(cc1OC)C1Cc3ccc(OC)c(OC)c3C[N+]1([O-])CC2 (stereo not drawn) here?
The Potency was “inactive”.

Which Potency does the source give for CC(=O)c1ccc(NC(=O)CSc2nnc(-c3ccoc3C)n2Cc2ccccc2)cc1 here?
The Potency was “inactive”.

Which Potency does the source give for Cc1c(NC(=O)C(C)OC(=O)c2ccc([N+](=O)[O-])s2)c(=O)n(-c2ccccc2)n1C (stereo not drawn) here?
Its Potency is active: 13.1 µM.

For COc1ccc(-n2ncc3c2CC(C)(C)CC3NC(=O)c2cnc(C)cn2)cc1 (stereo not drawn), which Potency is on record?
The Potency was inconclusive: 13.1 µM [inhibitor, partial curve].

For CCOC(=O)c1cnc2ccc(Br)cc2c1NCCO, which Potency is on record?
The Potency was “inactive”.

Which Potency does the source give for Cc1ccc(Cl)cc1NC(=O)c1ccccc1OCC(=O)Nc1ccc(Cl)cc1 here?
The Potency was active: 9.28 µM.

For Cc1oc(-c2ccccc2Cl)nc1CN(Cc1ccccn1)C[C@@H]1CCC(=O)N1, which Potency is on record?
Its Potency is inconclusive: 18.5 µM [inhibitor, partial curve, poor fit].

With COc1ccc(NC(=O)CN(c2ccc(C)cc2)S(=O)(=O)c2c(C)nn(C)c2C)cc1 as the compound, how does the Potency read?
Its Potency is “inactive”.

For Cc1cc(C)cc(NC(=O)C2CCCN(S(=O)(=O)c3ccc4[nH]c(=O)ccc4c3)C2)c1 (stereo not drawn), which Potency is on record?
Its Potency is inconclusive: 14.7 µM [inhibitor, partial curve, poor fit].

For O=C(NCCn1cccn1)C1CCC(=O)N(CCc2cccc(F)c2)C1 (stereo not drawn), which Potency is on record?
The Potency was inconclusive: 18.5 µM [inhibitor, single point].
